The values below come from patent US20200231668A1 (INTRINSIC LIFESCIENCES, published 2020).

No constants are given. Whether binding was seen depends on the method and setting. Some results given as binding are weak or reduced against the parent protein; the word gives no strength.

Experiment [1] deals with T1, endogenous human ERFE in serum samples (human) (UniProt Q4G0M1).
T1 sequence: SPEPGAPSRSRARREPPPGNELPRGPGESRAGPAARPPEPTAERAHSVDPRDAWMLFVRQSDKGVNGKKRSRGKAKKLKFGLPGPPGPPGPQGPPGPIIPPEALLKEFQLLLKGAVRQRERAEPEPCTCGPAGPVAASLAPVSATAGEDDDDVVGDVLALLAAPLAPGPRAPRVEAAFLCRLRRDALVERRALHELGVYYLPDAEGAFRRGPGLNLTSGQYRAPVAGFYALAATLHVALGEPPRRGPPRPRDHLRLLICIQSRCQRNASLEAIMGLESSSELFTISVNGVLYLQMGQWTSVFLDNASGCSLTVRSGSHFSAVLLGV
The experiment is described as follows: sandwich ELISA on human serum, 2D2-biotin or 2D2-HRP detection, 4C1 capture.

Experiment [2] concerns the target T1, endogenous human ERFE in serum samples (human). Nature of the experiment: sandwich ELISA on human serum. (In general: ELISA stands for enzyme-linked immunosorbent assay.)

B1: monoclonal antibody 2D2 (ATCC Accession Number PTA-123879) (antibody, mouse IgG2a, kappa, V domains shown)
VH: EVQLQQFGPELVKPGGSVKISCKASGYTFTDYNMDWVKQSHGKSLEWIGDFNPNYDSSTYNQKFKGKATLTVDKSSSTAYMELRSLTSEDTAVYYCARGMILYYGNSGSMDYWGQGTSVTVSS
VL: DIQMTQSSSYLSVSLGGRVTITCKASDHINNWLAWYQQKPGNAPRLLISGATSLETGVPSRFSGSGSGKDYTLTIISLQTEDVATYYCQQYWNTPRTFGGGTKLEIKR
For the molecule B1, the binding entry in experiment [1] and in experiment [2] was “binds” throughout.
